Test results as given in PubChem BioAssay AID1347076 (National Center for Advancing Translational Sciences (NCATS), 2019).
Hit rate of the full screen: of about 400,000 compounds, about 13,000 (3.2%) were called active. Inconclusive means that the source gave no clear call. Such entries were picked first, then a sample of the others. Calls follow the shape of the dose curve; as a rule, active = well fitted cell-killing curve with a large enough effect; inconclusive = small, poorly fitted or top-dose-only effect, or effect the other way; inactive = flat fitted curve, though single readings scatter. Potencies of inconclusive entries are doubtful fits and often do not repeat.

Experiment: qHTS assay for MDR1-selective chemotherapeutics: Primary screen using the drug-selected MDR subline cells KB-V1; also: nearly all actives have a fitted effect of over 60% in size
Settings: KB-V1 MDR cells viability, CellTiter-Glo, 72 h; activity change, negative = cytotoxicity: at 46.1 µM (top of the series)
How it was run: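 qHTS viability screen in drug-selected KB-V1 MDR cells: 72 h compound treatment at 37 degrees C, ATP luminescence end point.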
% is scaled to controls: 0 for no effect and ±100 for the full control effect; potency is read from the fitted curve at half-maximal effect.

Structure (SMILES)	Potency	activity change, negative = cytotoxicity
Cc1ccc(/C=C/C(=O)c2ccccc(=O)c2O)c(C)c1	active: 8.2 µM	–
COc1ccc(OC)c(N(CC(=O)NCCc2ccc(OC)c(OC)c2)S(=O)(=O)c2ccccc2)c1	inconclusive: 4.61 µM [cytotoxic, full curve]	–
C=C1C[C@@H]2C[C@@H]2CN(S(=O)(=O)c2ccc(C)cc2)[C@@H]1COCc1ccccc1	inconclusive: 14.6 µM [cytotoxic, partial curve, poor fit]	–
O=C(Oc1ccccc1)N(c1ccccc1)c1ccccc1	inconclusive: 9.2 µM [rising, partial curve, poor fit]	–
Brc1ccccc1OCCCCn1cnc2ccccc21	inconclusive: 6.51 µM [cytotoxic, partial curve]	–
C=C(C)C(=O)Nc1cccc(C2=NOC3(C2)C[C@H](C(N)=O)N(C(=O)C(c2ccccc2)c2ccccc2)C3)c1 (some centres not stated)	inconclusive: 23.1 µM [rising, single point]	–
COc1ccc2[nH]c(C)c(CCNC(=S)Nc3cc(C)cc(C)c3)c2c1	inactive	–
O=c1c(NCc2cccs2)nccn1-c1ccccc1	inactive	–
CN=C(N)NC(=O)Nc1c(C)cccc1C	inactive	–
CN(C)S(=O)(=O)N1CCC(Oc2ccc(C(=O)N3CCCCCCC3)cc2)CC1	active: 10.3 µM	–
CCc1nc2ccc(C(=O)NCc3ccccc3C)cc2nc1CC	inactive	–
CN(C(=O)CSc1nc(O)cc(=O)n1-c1ccccc1F)c1ccccc1	inconclusive: 4.11 µM [rising, full curve, poor fit]	–
Cc1c(C(=O)O)c(=S)sn1CCOc1ccccc1	inconclusive: 25.9 µM [rising, single point]	–
COc1ccc(CNc2ncnc3sccc23)cc1OC	active: 16.4 µM	–
CN1CCN(CC(=O)Nc2nnc(-c3cccs3)s2)CC1	inactive	–
O=C(NCC1CCCO1)/C(=C/c1ccccc1)NC(=O)c1ccccc1 (configuration not stated)	inconclusive: 2.06 µM [rising, full curve, poor fit]	–
CC(=O)CC1c2cc(F)ccc2C=C(c2ccsc2)N1c1ccc(C#Cc2cncn2C)cc1 (configuration not stated)	inconclusive: 29.1 µM [cytotoxic, single point]	–
COc1cccc(NCc2nnc(SCC(=O)NC3CCS(=O)(=O)C3)n2C2CCCCC2)c1 (configuration not stated)	inconclusive: 16.4 µM [rising, single point]	–
Cc1cccc(C)c1OCc1cc(C(=O)NC2CCC2)no1	inactive	–
COc1ccc(Cl)cc1NC(=O)COC(=O)c1ccc(Br)o1	inconclusive: 11.6 µM [rising, partial curve, poor fit]	–
Nc1ccc(N2CCN(c3ccc(Cl)c(Cl)c3)CC2)cc1	active: 18.4 µM	–
CCCOc1ccc(Cl)cc1/C=C1/C(=O)ON=C1C	inactive	–
O=C(CS(=O)(=O)c1cccc2nsnc12)NCc1ccccc1Cl	inactive	–
Cc1ccc(CN2c3ccccc3-c3nc(SCC(=O)NCc4ccccc4)ncc3S2(=O)=O)cc1	inconclusive: 32.6 µM [cytotoxic, single point]	–

Structure (SMILES)	Potency	activity change, negative = cytotoxicity
CCN(CC)S(=O)(=O)c1cccc(-c2nnc(SCCCC(=O)c3ccccc3)o2)c1	inconclusive: 14.1 µM [cytotoxic, partial curve, poor fit]	–
COc1ccc(NC(=O)C2Cc3c(-c4ccc(Cl)cc4)ccnc3O2)cc1 (configuration not stated)	inconclusive: 29.1 µM [cytotoxic, single point]	–
CCOC(=O)c1sc2nc(NC(=O)C(C)(C)C)sc2c1C	inconclusive: 29.1 µM [cytotoxic, single point]	–
CNC(=O)CSc1nc2ccccc2c(=O)n1C1CCCCC1	inconclusive: 5.17 µM [cytotoxic, partial curve]	–
CCN1CCCC1CNC(=O)c1ccc(Sc2ccc(F)cc2)c([N+](=O)[O-])c1 (configuration not stated)	inconclusive: 20.6 µM [cytotoxic, single point]	–
COc1ccc(NCc2cc3cc(OC)ccc3[nH]c2=O)cc1	active: 18.4 µM	–
O=C(COc1ccc([N+](=O)[O-])cc1)Nc1nc(-c2ccccn2)cs1	inconclusive: 3.26 µM [cytotoxic, full curve]	–
COc1ccc(OC(=O)Nc2ccc([N+](=O)[O-])cc2OC)cc1	inactive	–
Cc1cc(O)c(CN2CCN(S(=O)(=O)c3cccs3)CC2)cc1C(C)C	inconclusive: 16.4 µM [cytotoxic, single point]	–
Cc1ccc2ccc3cccnc3c2n1	inconclusive: 23.1 µM [cytotoxic, single point]	–
CC(=O)c1cccc(NC(=O)c2nc(-c3ccccc3)oc2C)c1	inconclusive: 18.4 µM [cytotoxic, partial curve]	–
Cc1ccc(N2C=Nc3ccc(C)c4nc(C)cc2c34)cc1	–	inconclusive: -37.4% [cytotoxic]
O=C(C1CCCN(S(=O)(=O)c2ccccc2[N+](=O)[O-])C1)N1CCN(c2ccccc2)CC1 (configuration not stated)	active: 5.8 µM	–
Cc1noc(NS(=O)(=O)c2ccc(NC(=O)CSc3nc4c(cc3C#N)CCCC4)cc2)c1C	inconclusive: 20.6 µM [rising, partial curve]	–
Cc1csc(NC(=O)c2cc([N+](=O)[O-])cc([N+](=O)[O-])c2)n1	inconclusive: 20.6 µM [cytotoxic, single point]	–
COc1ccc(-c2c(-c3ccsc3)oc(=O)c3cc(OC)c(OC)cc23)cc1	inactive	–
Cc1c(NC(=O)c2ccc(S(=O)(=O)N3CC(C)OC(C)C3)cc2)c(=O)n(-c2ccccc2)n1C (configuration not stated)	inconclusive: 29.1 µM [rising, partial curve, poor fit]	–
NC(=O)c1cccc(-c2ccnc3c2CC(C(=O)Nc2cccc(C(F)(F)F)c2)O3)c1 (configuration not stated)	active: 23.1 µM	–
CC(C)(C)C1CCCCC1NC(=O)c1ccncc1 (configuration not stated)	inactive	–
Cc1cc(=O)cc(C)n1-c1ccccc1N	inactive	–
CCN1CCN(C2CCCCC2NS(=O)(=O)c2ccc(Cl)cc2)CC1 (configuration not stated)	inconclusive: 29.1 µM [rising, single point]	–
CCC(Oc1nc2ccccc2nc1-c1ccccc1NC(C)=O)C(=O)c1ccccc1 (configuration not stated)	inconclusive: 29.1 µM [cytotoxic, single point]	–
CC1=C(C(=O)N(C)C)CC(CC(=O)NC(c2ccccc2)c2ccccc2)C(=O)N1CCC1=CCCCC1 (configuration not stated)	inactive	–
NC(=S)NN=Cc1cc(-c2cccc(N)c2)ccn1	inconclusive: 2.31 µM [cytotoxic, full curve, poor fit]	–

A run of entries from further up:
Structure (SMILES)	Potency	activity change, negative = cytotoxicity
Cc1cc(=O)cc(C)n1-c1ccccc1N	inactive	–
CCN1CCN(C2CCCCC2NS(=O)(=O)c2ccc(Cl)cc2)CC1 (configuration not stated)	inconclusive: 29.1 µM [rising, single point]	–
CCC(Oc1nc2ccccc2nc1-c1ccccc1NC(C)=O)C(=O)c1ccccc1 (configuration not stated)	inconclusive: 29.1 µM [cytotoxic, single point]	–

(list continues)

Structure (SMILES)	Potency	activity change, negative = cytotoxicity
COc1cccc(CNC(=O)c2c(C)nn(-c3ccc(F)cc3)c2-n2cccc2)c1	active: 9.2 µM	–
CN(c1ccc(F)cc1)S(=O)(=O)c1ccc(Cl)c(C(=O)NC2(C)CCS(=O)(=O)C2)c1 (configuration not stated)	inactive	–
O=S(=O)(NC1CCN(Cc2ccccc2)CC1)c1ccc2ccccc2c1	inconclusive: 14.6 µM [cytotoxic, partial curve]	–
COc1ccc(-c2ccc(C)cc2)cc1[C@H]1[C@@H]2C=CCC[C@@]2(C)C(=O)N1Cc1ccccc1	inconclusive: 18.4 µM [cytotoxic, single point]	–
CCc1ccccc1NC(=O)CN(C)C(=O)CSc1nnc(Nc2cccc(C)c2)s1	inconclusive: 25.9 µM [cytotoxic, single point]	–
Cc1ccccc1NC(=O)NCCc1ccc(Cl)cc1	–	inconclusive: 23.9%
CN(Cc1ccccc1)CC(O)COc1ccc(CNCCc2ccncc2)cc1 (configuration not stated)	inconclusive: 25.9 µM [cytotoxic, single point]	–
O=C1c2ccccc2[C@@H]2C[C@@H](O)[C@H](Nc3cccc(Cl)n3)CCN12	inactive	–
Cc1cccnc1C(NC(=O)C1CCN(Cc2ccc(Cl)c(Cl)c2)CC1)c1ccc(Cl)cc1 (configuration not stated)	inconclusive: 18.4 µM [cytotoxic, partial curve, poor fit]	–
CCCCc1ccc(-n2nc3ccc(NC(=O)c4cc5ccccc5o4)cc3n2)cc1	inactive	–
Cc1nnsc1C(=O)NNS(=O)(=O)c1ccccc1	inconclusive: 2.91 µM [rising, partial curve, poor fit]	–
Cc1ccc(/C=N/n2c(COc3ccccc3)n[nH]c2=S)o1	inconclusive: 5.17 µM [rising, full curve, poor fit]	–
Cc1ccc(-c2cc3cccc[n+]3cc2-c2ccc(C)cc2)cc1	inactive	–
CCOC(=O)c1cc(C(C)C)sc1NC(=O)COC(=O)c1nccnc1N	inconclusive: 18.4 µM [cytotoxic, single point]	–
CCn1c(COc2cccc(OC)c2)nnc1SCC(=O)Nc1cc(OC)ccc1OC	inconclusive: 7.31 µM [cytotoxic, partial curve]	–
CSc1ncc(C(=O)Nc2cc(C)cc(C)c2)c(-c2ccccc2)n1	inactive	–
O=C(Nc1ccc(O)c2c(=O)cc(-c3ccccc3Cl)oc12)c1ccccc1Cl	inactive	–
CCC(CC)C(=O)N1c2ccccc2C(C)(c2ccccc2)CC1(C)C (configuration not stated)	inactive	–
COc1cccc(N2CCN(C(=O)c3cccc(NC(=O)C4=C(C)OCCS4)c3)CC2)c1	inconclusive: 10.3 µM [cytotoxic, partial curve, poor fit]	–
Cc1ccc(C(CCNC(C)c2cccs2)c2ccco2)cc1 (configuration not stated)	inconclusive: 29.1 µM [cytotoxic, single point]	–
COC(=O)c1ccc(-c2ccc(/C=N/NC(=O)Cc3nnc(N)s3)o2)cc1	inactive	–
CS(=O)(=O)Oc1ccc(Br)cc1/C=C1/N=C(c2ccco2)OC1=O	inactive	–
CCCc1ccc(OCc2nc(-c3ccc(NC(=O)c4ccco4)cc3)no2)cc1	inconclusive: 29.1 µM [cytotoxic, single point]	–
O=c1c2ccccc2nc(/C=C/c2cccc([N+](=O)[O-])c2)n1CCCO	inactive	–
